In PubChem BioAssay (NCATS):
The inconclusive results got no clear call from the source; some entries with a clear call stand among them for comparison. Potencies beside an inconclusive call are fits to weak or partial responses and may not hold up. The source made the active and inactive calls. Calls follow the shape of the dose curve; as a rule, active = well fitted activation curve with a large enough effect; inconclusive = small, poorly fitted or top-dose-only effect, or another doubt; inactive = no such curve, though single readings can be large or run the other way.

Target: Rap guanine nucleotide exchange factor 3 (Homo sapiens) (UniProt O95398)
Assay: Counterscreen qHTS for agonist of cAMP-regulated guanine nucleotide exchange factor 3 (EPAC1) (AID 1645889); also: nearly all actives have a fitted effect of over 40% in size; as to activation: % of control where 0% means no effect
Conditions: EPAC1 Rap1B-BODIPY-GDP exchange, fluorescence; activation: at 154 µM (top of the series) unless noted
Summary of the method: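 Measured: fluorescence of BODIPY-GDP bound to Rap1B, which falls as exchange proceeds. Conditions include 50 uM competing GDP, 5 and 30 min reads, and a later cAMP challenge for antagonist detection.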
Potency is read from the fitted curve at half-maximal effect.

SMILES | activation | Potency
O=C(NCCC(=O)N(CCc1ccccc1)Cc1ccccc1)c1ccccc1Cl | inactive: 7.42% [at 30.8 µM] | –
O=C(N/N=C/c1ccccc1Cl)c1[nH]c2ccc(Br)cc2c1-c1ccccc1 | – | inconclusive: 0.0112 µM [activator, full curve, poor fit]
CC(=O)NC(c1ccc2ccccc2c1)c1ccc2cccnc2c1O (configuration not stated) | – | inconclusive: 3.55 µM [activator, full curve, poor fit]
COc1ccc(S(=O)(=O)N2CCOC23CCN(S(=O)(=O)c2ccc(F)cc2C)CC3)cc1 | – | inconclusive: 7.08 µM [activator, partial curve, poor fit]
CC(=O)c1ccc(NC(=O)CSc2nc(Nc3ccccc3)nc(N3CCOCC3)n2)cc1 | – | inconclusive: 12.6 µM [activator, partial curve]
Cc1ccccc1OCc1nc2ccccc2n1Cc1ccccc1Cl | inactive: -11% | –
CN(C)C(=S)Oc1ccccc1-c1ccccc1OC(=S)N(C)C | inactive: 12.9% | –
CC1(C(=O)Nc2ccc(Cl)cc2)Cc2c(-c3cccc(C(N)=O)c3)ccnc2O1 (configuration not stated) | inconclusive: 16.5% [activator] [at 30.8 µM] | –
Cc1ccc(Nc2ccc(N3CCN(C(=O)c4ccc([N+](=O)[O-])cc4)CC3)nn2)cc1 | inactive: 18.9% | –
Cc1cc(NC(=O)CSc2nc(-c3ccccc3)nc3c2c(=O)n(C)c(=O)n3C)no1 | – | inconclusive: 0.01 µM [activator, full curve, poor fit]
Cc1ccc(CNC(=O)c2c[nH]n3c(=O)c(Cc4ccc(F)cc4Cl)c(C)nc23)cc1 | inactive: 1.79% | –
CCOC(=O)Cn1c(-c2cccs2)cc2cc(Cl)ccc21 | inconclusive: 46.6% [activator] | –
Cc1cc(C)c(C(=O)c2ccccc2)c(C)c1 | inactive: 24% | –
O=C1Nc2ccccc2Nc2ncccc21 | inconclusive: 39.6% [activator] [at 30.8 µM] | –
CC(=O)NC(c1cccs1)c1cc(Cl)c2ccccc2c1O (configuration not stated) | – | inconclusive: 22.4 µM [activator, partial curve, poor fit]
CC(C)CC1C(=O)N(Cc2cn(Cc3ccco3)nn2)CCS(=O)(=O)N1Cc1ccc(-c2ccc(F)cc2)cc1 (configuration not stated) | inactive: -1.4% | –

For convenience, part of the list above.
SMILES | activation | Potency
Cc1ccccc1OCc1nc2ccccc2n1Cc1ccccc1Cl | inactive: -11% | –
CN(C)C(=S)Oc1ccccc1-c1ccccc1OC(=S)N(C)C | inactive: 12.9% | –

Next compounds

SMILES | activation | Potency
Cc1oc2cc(Br)c(O)c(Br)c2c1-c1ccccc1 | – | inconclusive: 7.94 µM [activator, partial curve, poor fit]
Cc1c(Cl)cccc1NC(=O)CN(CCc1ccccc1)S(=O)(=O)c1ccccc1 | – | inconclusive: 20 µM [activator, full curve, poor fit]
Cc1cc(-c2ccc(Br)s2)nc(-n2cccc2)n1 | – | inconclusive: 3.16 µM [activator, full curve, poor fit]
CCOc1ccc(CCNC(=O)c2cccc(S(=O)(=O)N3CCCCC3)c2)cc1OCC | inactive: -3.49% | –
CCCCN(C(=O)c1cccc2c(=O)c(C)c(-c3ccccc3)oc12)c1ccccc1 | – | inconclusive: 14.1 µM [activator, partial curve, poor fit]
CCOc1cc(C(=O)Nc2ccc3c(c2)n(C)c(=O)c(=O)n3C)cc(OCC)c1OCC | inactive: 9.58% | –
CCc1nc2c(OCCOc3ccc(F)cc3)cccn2c1N(C)C(=O)c1ccc(OC)cc1 | inactive: 11.5% [at 30.8 µM] | –
COc1cc(CCc2ccccc2)c(C(=O)O)c(O)c1CC=C(C)C | inactive: -2.5% | –
COc1cc(N)ccc1-c1cc2ccccc2oc1=O | – | inconclusive: 25.1 µM [activator, partial curve, poor fit]
O=C(Nc1ccc(Cl)cc1)N[C@@H]1CC[C@H](CCNS(=O)(=O)c2ccccc2F)O[C@@H]1CO | inconclusive: 29.8% [activator] | –
O=C1C(Cc2ccccc2)SC(=Nc2ccccc2)N1c1ccccc1 (configuration not stated) | inactive: 18.1% [at 30.8 µM] | –
Cc1onc(-c2ccccc2)c1C(=O)c1c[nH]c(C(=O)NCCCN2CCOCC2)c1 | inactive: -11.1% [at 30.8 µM] | –
Oc1ccccc1-c1nc(NCc2ccccc2)c2ccccc2n1 | inactive: -14.9% | –
CCOc1cc(/C=C2\SC(=S)N(NS(=O)(=O)c3ccccc3)C2=O)ccc1O | inconclusive: 29.7% [activator] | –
COC(=O)c1ccc(N2C(=O)CC(N3CCOCC3)C2=O)cc1 (configuration not stated) | inactive: 10.6% [at 30.8 µM] | –
CSC1=NC2(CCN(C(=O)NC3CCCCC3)CC2)N=C1c1ccc(C)cc1 | inconclusive: 32.8% [activator] | –
